# Several values for one entry are separate records, joined by “and”; a condition that tells them apart may be missing. Equal entries are not always repeated. This is one part of the list. These are further read-outs of the screen, such as a control signal, another cell line or another target. No call is given for them. The list favours compounds with an active or inconclusive main result. The note in brackets gives the kind of curve behind each potency; many fits are weak.
# Assay: qHTS Assay for Identifying the Cell-Membrane Permeable IMPase Inhibitors
# Conditions: CHO-M1 cells, IP1 accumulation, HTRF TR-FRET ratio; measured here: donor channel 620 nm AC50
row,SMILES,AC50
1,O=C(N/N=C/c1ccc(O)cc1)c1csc2ccccc12,"5.01 µM [rising, single point]"
2,O=C(COC(=O)CCCSc1nc2ccccc2[nH]1)NC(=O)NC1CCCC1,"0.2 µM [rising, full curve, poor fit]"
3,O=C(Nc1ccc(Cl)c(Cl)c1)N(Cc1cccnc1)Cc1ccco1,"6.31 µM [rising, full curve]"
4,O=S(=O)(c1ccc(Cl)cc1)N1CCCC1c1nc(-c2ccc(Cl)cc2)no1 (configuration not stated),"0.00501 µM [falling, full curve, poor fit]"
5,C=C1CSc2nc3ccccc3c(=O)n21,"0.02 µM [falling, full curve]"
6,CCCNc1nc2c(c(=O)n(C)c(=O)n2C)n1CCc1ccccc1,"3.16 µM [rising, single point]"
7,CC(C)(C)OC(=O)NCCC(=O)Oc1ccc2ccc(=O)oc2c1,"25.1 µM [rising, single point]"
8,O=C(NC1CCCCC1)N1CCCC(c2nc(-c3cccs3)no2)C1 (configuration not stated),"20 µM [falling, single point]"
9,CC(C)NC(=O)C(Cc1ccccc1)N1C(=O)c2ccccc2C1=O (configuration not stated),"0.251 µM [rising, single point]"
10,Cc1nc(SCC(=O)Nc2ccc(C)c(F)c2)c2oc3ccccc3c2n1,"25.1 µM [rising, single point]"
11,CCn1cc(C(=O)Nc2cccc(NC(C)=O)c2)c2cc(OC)c(OC)cc2c1=O,"0.0316 µM [rising, full curve, poor fit]"
12,O=c1c(O)c(-c2cc(O)c(O)c(O)c2)oc2cc(O)cc(O)c12,"794 nM [falling, full curve, poor fit] and 2 nM [falling, full curve, poor fit]"
13,CCc1nnc(NC(=O)CSc2nc3c(cc2C#N)CCC3)s1,"31.6 µM [rising, single point]"
14,Nc1nc2ccc(S(=O)(=O)N3CCCCC3)cc2s1,"0.01 µM [rising, full curve]"
15,COc1ccc(NC(=O)CN2CCN(S(=O)(=O)c3ccc(Cl)cc3)CC2)cc1,"4.47 µM [rising, single point]"
16,Cn1c(=O)[nH]c(=O)c2c1nc(CN1CCOCC1)n2CCc1ccccc1,"20 µM [rising, partial curve]"
17,COc1ccc(NC(=S)NCCc2ccc(Cl)cc2)c(OC)c1,"0.01 µM [rising, full curve, poor fit]"
18,Cc1csc(NC(=O)NC2(C(F)(F)F)Oc3ccccc3O2)n1,"0.501 µM [falling, partial curve, poor fit]"
19,CCOc1ccc(Cn2c(SCCCCC#N)nc3c2c(=O)n(C)c(=O)n3C)cc1OCC,"0.01 µM [rising, full curve]"
20,Cn1c(=O)c2c(nc(NCCNC(=O)c3ccco3)n2Cc2ccc(Cl)cc2Cl)n(C)c1=O,"5.01 µM [falling, partial curve]"
21,CCCC(=O)Nc1nc(C)c(-c2csc(Nc3ccccc3OC)n2)s1,"1 µM [rising, partial curve]"
22,CCC1Oc2ccc(C)cc2N(CC(=O)N2CCN(c3ccc(F)cc3)CC2)C1=O (configuration not stated),"0.562 µM [rising, full curve, poor fit]"
23,CCCCCOc1ccc(Br)cc1/C(C)=N/NC1=NCCN1,"25.1 µM [falling, partial curve, poor fit]"

row,SMILES,AC50
1,CS(=O)(=O)Nc1nnc(Cc2ccccc2)s1,"0.158 µM [falling, full curve]"
2,Cc1ccc(CNC(=O)CCCC(=O)O)cc1,"0.316 µM [falling, full curve, poor fit]"
3,Cc1ccc2nsnc2c1S(=O)(=O)N(Cc1ccco1)Cc1cc2cccc(C)c2[nH]c1=O,"3.98 µM [rising, single point]"
4,Nc1nnc(SCc2ccc3c(c2)OCO3)s1,"1.26 µM [falling, partial curve, poor fit]"
5,O=C(CSc1n[nH]c(-c2cccs2)n1)NCc1cccs1,"0.00501 µM [falling, full curve, poor fit]"
6,COc1ccc(NC(=O)O/N=C2/CCCc3ccc(OC)cc32)cc1,"5.01 µM [falling, full curve, poor fit]"
7,Cc1cc(C)c2c(n1)nn1c(NCCN3CCOCC3)cc(C)nc21,"1 µM [falling, single point]"
8,CC(=O)NC1(C(F)(F)F)C(=O)Nc2c1c(=O)n(C)c(=O)n2C (configuration not stated),"0.0398 µM [falling, full curve, poor fit]"
9,COC(=O)C1=C(O)/C(=C\c2ccc(O)c(OC)c2)N=C1C,"10 µM [falling, partial curve]"
10,O=C(Nc1ccc(Cl)cc1)c1ccncc1,"0.0398 µM [falling, full curve, poor fit]"
11,O=C(Nn1c(O)c(C=C2N=c3ccccc3=N2)sc1=S)c1ccc(Cl)cc1,"31.6 µM [falling, single point]"
12,O=C(CSc1nc2ccsc2c(=O)n1NC(=O)c1ccccc1)Nc1nccs1,"6.31 µM [falling, single point]"
13,O=C(Nc1ccccc1)O/N=C/c1ccncc1,"3.98 µM [rising, partial curve]"
14,COc1ccc(OCc2ccc(-c3nc4ccccc4c(=O)n3N)o2)cc1,"0.794 µM [falling, full curve, poor fit]"
15,O=C(NCCNC(=O)c1cc(OCC(F)(F)F)ccc1OCC(F)(F)F)Nc1ccc(OC(F)(F)F)cc1,"6.31 µM [rising, single point]"
16,COc1ccc2[nH]c(C(=O)O)c(NS(=O)(=O)c3ccc(Cl)s3)c2c1,"1.58 µM [rising, partial curve, poor fit]"
17,N#CC(=C=[N-])c1nc2ccccc2nc1-[n+]1ccccc1,"1.58 µM [falling, partial curve, poor fit]"
18,COC(=O)c1ccc(NC(=O)C23CC4CC(C2)CC(n2cncn2)(C4)C3)cc1,"0.251 µM [falling, full curve]"
19,Cc1cc2c(N=O)c(NO)ccc2[nH]1,"15.8 µM [falling, single point]"
20,CCn1c(=O)sc2cc(NS(=O)(=O)c3ccc(F)c(C)c3)ccc21,"0.0224 µM [falling, full curve, poor fit]"
21,COc1cccc(C(=O)N=c2sc3c(C)ccc(OC)c3n2C)c1,"31.6 µM [rising, single point]"
22,O=C1C=C(Nc2ccccc2O)c2ccccc2C1=O,"10 µM [falling, partial curve, poor fit]"
23,C=C(C)Cn1c(CCNC(=O)CC)nc2ccccc21,"0.794 µM [falling, full curve]"

# Some of the entries so far, tab-delimited:
row	SMILES	AC50
15	COc1ccc(NC(=O)CN2CCN(S(=O)(=O)c3ccc(Cl)cc3)CC2)cc1	4.47 µM [rising, single point]
23	CCCCCOc1ccc(Br)cc1/C(C)=N/NC1=NCCN1	25.1 µM [falling, partial curve, poor fit]
23	C=C(C)Cn1c(CCNC(=O)CC)nc2ccccc21	0.794 µM [falling, full curve]

# (cont.)

row,SMILES,AC50
1,CCC(C)NS(=O)(=O)c1ccc(OCC(=O)NCc2cccnc2)cc1 (configuration not stated),"3.16 µM [falling, single point]"
2,COC(=O)c1cc(NCc2c(F)cccc2Cl)ccc1N1CCOCC1,"31.6 µM [falling, single point]"
3,CCOc1cc(/C=C2/N=C(c3ccc(C(C)(C)C)cc3)OC2=O)cc(Cl)c1OS(C)(=O)=O,"0.01 µM [rising, full curve, poor fit]"
4,CCC(C)C(=O)O[C@H]1C[C@@H](C)C=C2C=C[C@H](C)[C@H](CC[C@@H]3C[C@@H](O)CC(=O)O3)C21 (some centres not stated),"12.6 µM [rising, single point]"
5,O=C(CSc1cnc2ccccc2n1)NC1CCCC1,"12.6 µM [rising, partial curve]"
6,COc1ccccc1N(C(C)=O)c1nc(C)cc(C)c1C#N,"1.58 µM [falling, partial curve]"
7,CCN(CC)S(=O)(=O)c1cccc(-c2nnc(SCC(N)=O)n2CCc2ccccc2)c1,"5.01 µM [falling, single point]"
8,COc1ccccc1-c1cc(C(=O)Nc2ccc(F)cc2F)no1,"3.98 µM [falling, partial curve, poor fit]"
9,Cc1ccnc(N2CCC(C(=O)NCc3ccc4c(c3)OCO4)CC2)n1,"35.5 µM [falling, single point]"
10,Cc1ccc(Nc2nc3c(c(=O)[nH]c(=O)n3C)n2Cc2ccc(F)cc2)cc1,"0.1 µM [falling, single point]"
11,O=C(O)c1cc(S(=O)(=O)NCC2CCCO2)ccc1Cl (configuration not stated),"0.1 µM [falling, full curve, poor fit]"
12,CCCCc1ccc(NC(=O)N[C@H](C(=O)O)C(C)C)cc1,"31.6 µM [falling, single point]"
13,CC(C)(C)OC(=O)N1CCC(C(=O)N2CCCCCC2)CC1,"5.01 µM [falling, single point]"
14,CCOC(=O)CNS(=O)(=O)c1ccc(C(=O)O)cc1,"0.501 µM [rising, full curve, poor fit]"
15,O=C(CSc1nnnn1C1CCCCC1)Nc1nc2c(s1)CCCC2,"3.98 µM [falling, full curve, poor fit]"
16,CN(C)c1nc(N(C)C)nc(N2CCCCC2)n1,"0.02 µM [rising, full curve, poor fit]"
17,O=c1/c(=C/c2ccccn2)sc2nc3ccccc3n12,"0.0631 µM [rising, single point]"
18,S=c1[nH]nc(-c2ccccc2)o1,"12.6 µM [rising, partial curve]"
19,COc1cc(-c2oc3ccc(C)cc3c(=O)c2O)cc(OC)c1OC,"3.55 µM [falling, single point]"
20,CC1(C)CC(=O)C(C(=S)Nc2ccccc2)=C(NCCN2CCOCC2)C1,"31.6 µM [rising, single point]"
21,Cc1cc(C(=O)N(C)C)sc1-c1ccccc1,"1.26 µM [falling, full curve]"

# From PubChem BioAssay AID901 (National Center for Advancing Translational Sciences (NCATS), 2007)
